This assay deals with DDB1 and CUL4 associated factor 1 (DCAF1) (UniProt Q9Y4B6). Briefly: affinity purification with mass spectrometry; lysate of HepG2 cells overexpressing DCAF1, immunoprecipitated with DCAF1 primary antibody; SDS-PAGE, digestion, LC-MS/MS.

By UniProt entry, the sequences of proteins in these tests, tags left out.
UniProt Q9Y4B6: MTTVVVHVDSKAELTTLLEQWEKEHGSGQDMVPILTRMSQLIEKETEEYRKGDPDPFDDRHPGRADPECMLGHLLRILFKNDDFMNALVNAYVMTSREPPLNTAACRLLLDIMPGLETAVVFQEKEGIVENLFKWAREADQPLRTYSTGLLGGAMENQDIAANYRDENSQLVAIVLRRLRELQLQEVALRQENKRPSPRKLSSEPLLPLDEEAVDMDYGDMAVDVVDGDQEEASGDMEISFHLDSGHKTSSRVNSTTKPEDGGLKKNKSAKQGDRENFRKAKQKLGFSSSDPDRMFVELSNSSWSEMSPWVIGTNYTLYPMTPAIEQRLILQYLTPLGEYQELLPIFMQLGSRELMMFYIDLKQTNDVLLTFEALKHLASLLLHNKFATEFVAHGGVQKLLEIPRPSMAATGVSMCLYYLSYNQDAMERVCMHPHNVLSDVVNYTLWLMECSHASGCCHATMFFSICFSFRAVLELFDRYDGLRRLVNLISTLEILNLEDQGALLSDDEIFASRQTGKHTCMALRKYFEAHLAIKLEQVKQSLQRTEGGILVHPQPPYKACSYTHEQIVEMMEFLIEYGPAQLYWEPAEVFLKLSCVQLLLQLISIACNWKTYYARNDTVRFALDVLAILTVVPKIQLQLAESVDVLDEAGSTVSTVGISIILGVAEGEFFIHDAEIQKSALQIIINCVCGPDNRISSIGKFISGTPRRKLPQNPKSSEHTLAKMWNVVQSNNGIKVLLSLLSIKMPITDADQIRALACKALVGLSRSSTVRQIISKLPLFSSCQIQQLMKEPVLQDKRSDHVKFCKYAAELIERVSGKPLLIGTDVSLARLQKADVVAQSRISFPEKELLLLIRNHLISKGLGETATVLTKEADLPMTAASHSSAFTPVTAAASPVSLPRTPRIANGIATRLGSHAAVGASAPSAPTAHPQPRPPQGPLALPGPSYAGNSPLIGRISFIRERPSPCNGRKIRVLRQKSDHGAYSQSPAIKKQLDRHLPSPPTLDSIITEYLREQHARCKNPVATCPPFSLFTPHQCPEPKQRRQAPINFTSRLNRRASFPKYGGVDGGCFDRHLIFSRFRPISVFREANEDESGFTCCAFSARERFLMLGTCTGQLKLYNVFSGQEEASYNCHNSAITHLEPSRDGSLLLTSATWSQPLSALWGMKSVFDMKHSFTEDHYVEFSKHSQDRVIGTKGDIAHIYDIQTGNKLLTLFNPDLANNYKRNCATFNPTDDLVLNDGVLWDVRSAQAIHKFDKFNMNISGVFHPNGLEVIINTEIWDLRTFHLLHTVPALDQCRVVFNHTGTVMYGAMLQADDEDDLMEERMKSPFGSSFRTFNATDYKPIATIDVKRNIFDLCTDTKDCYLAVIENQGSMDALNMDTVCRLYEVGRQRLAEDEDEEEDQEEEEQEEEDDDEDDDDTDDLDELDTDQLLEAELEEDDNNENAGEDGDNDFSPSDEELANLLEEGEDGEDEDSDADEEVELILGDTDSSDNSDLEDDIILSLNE
UniProt Q8TEW0: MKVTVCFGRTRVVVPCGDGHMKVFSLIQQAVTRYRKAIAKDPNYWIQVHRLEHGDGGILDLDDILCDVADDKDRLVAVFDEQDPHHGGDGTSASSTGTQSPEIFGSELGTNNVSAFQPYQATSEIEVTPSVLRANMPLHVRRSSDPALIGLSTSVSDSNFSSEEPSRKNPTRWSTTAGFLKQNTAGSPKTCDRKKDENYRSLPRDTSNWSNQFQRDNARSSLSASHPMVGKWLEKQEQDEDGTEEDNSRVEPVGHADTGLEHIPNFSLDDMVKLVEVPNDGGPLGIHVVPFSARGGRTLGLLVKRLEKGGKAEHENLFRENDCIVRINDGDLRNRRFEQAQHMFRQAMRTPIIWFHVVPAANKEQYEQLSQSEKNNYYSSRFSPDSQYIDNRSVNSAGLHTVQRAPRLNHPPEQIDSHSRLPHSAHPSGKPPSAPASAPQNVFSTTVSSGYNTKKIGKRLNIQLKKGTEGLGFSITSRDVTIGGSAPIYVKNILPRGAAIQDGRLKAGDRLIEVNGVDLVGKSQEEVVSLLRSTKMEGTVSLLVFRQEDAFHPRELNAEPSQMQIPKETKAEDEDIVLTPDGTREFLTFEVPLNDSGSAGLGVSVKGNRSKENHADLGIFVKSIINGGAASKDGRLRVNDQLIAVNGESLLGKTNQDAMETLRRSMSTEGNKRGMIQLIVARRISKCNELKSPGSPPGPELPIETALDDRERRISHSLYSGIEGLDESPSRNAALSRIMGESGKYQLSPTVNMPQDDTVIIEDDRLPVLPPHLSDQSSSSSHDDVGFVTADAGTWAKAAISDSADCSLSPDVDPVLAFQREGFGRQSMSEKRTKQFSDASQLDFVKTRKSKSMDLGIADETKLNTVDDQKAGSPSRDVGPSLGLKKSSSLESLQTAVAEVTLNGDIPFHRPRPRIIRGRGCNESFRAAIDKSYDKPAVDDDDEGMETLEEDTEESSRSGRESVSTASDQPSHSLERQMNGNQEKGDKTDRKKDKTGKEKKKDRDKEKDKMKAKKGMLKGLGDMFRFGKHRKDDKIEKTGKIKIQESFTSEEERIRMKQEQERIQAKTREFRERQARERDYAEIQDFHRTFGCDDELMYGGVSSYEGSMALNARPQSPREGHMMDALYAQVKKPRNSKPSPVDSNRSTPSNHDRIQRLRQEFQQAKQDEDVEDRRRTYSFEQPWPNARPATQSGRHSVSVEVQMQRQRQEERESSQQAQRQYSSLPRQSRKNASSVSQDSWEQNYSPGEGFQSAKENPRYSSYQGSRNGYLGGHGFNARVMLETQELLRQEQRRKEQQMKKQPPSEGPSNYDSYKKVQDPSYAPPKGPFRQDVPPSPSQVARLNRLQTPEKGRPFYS

No constants are given. Whether binding was seen depends on the method and setting. Binding seen in cells or lysates may run through a third protein. These calls come from enrichment with a bait or labelling near it, and not all partners need be listed.

With “par-3 family cell polarity regulator (PARD3) (from UniProt Q8TEW0 1-1356)”, the binding entry was “binds”.

Values taken from article PMC11071249.
